{"source": "paper PMC12713080", "biological_target": "T1, transforming growth factor β‐activated kinase 1 (TAK1), endogenous (human (endogenous in MDA-MB-231)) (UniProt O43318)", "T1 sequence": "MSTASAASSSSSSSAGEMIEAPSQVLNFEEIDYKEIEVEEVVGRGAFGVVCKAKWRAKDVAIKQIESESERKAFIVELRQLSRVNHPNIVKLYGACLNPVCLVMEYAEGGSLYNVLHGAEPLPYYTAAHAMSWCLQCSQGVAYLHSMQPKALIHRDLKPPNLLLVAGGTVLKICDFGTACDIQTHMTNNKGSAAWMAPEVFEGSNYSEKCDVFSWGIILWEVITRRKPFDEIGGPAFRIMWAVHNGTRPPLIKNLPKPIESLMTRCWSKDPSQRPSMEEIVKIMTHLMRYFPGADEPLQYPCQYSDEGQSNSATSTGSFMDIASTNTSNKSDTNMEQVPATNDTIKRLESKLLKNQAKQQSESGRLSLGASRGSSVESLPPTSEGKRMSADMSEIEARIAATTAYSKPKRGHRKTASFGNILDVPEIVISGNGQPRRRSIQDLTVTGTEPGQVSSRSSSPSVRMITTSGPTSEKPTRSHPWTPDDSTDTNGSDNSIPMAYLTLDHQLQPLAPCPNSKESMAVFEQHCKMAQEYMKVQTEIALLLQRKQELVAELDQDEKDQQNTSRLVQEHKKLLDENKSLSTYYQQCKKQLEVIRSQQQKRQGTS", "test": "co-IP; as a1, cells treated with the copper chelator TTM (50 µM)", "note": "No constants are given. Whether binding was seen depends on the method and setting. Binding seen in cells or lysates may run through a third protein.", "data": [{"binder": "IκB kinase β (IKKβ), endogenous (protein, UniProt O14920 1-756) MSWSPSLTTQTCGAWEMKERLGTGGFGNVIRWHNQETGEQIAIKQCRQELSPRNRERWCLEIQIMRRLTHPNVVAARDVPEGMQNLAPNDLPLLAMEYCQGGDLRKYLNQFENCCGLREGAILTLLSDIASALRYLHENRIIHRDLKPENIVLQQGEQRLIHKIIDLGYAKELDQGSLCTSFVGTLQYLAPELLEQQKYTVTVDYWSFGTLAFECITGFRPFLPNWQPVQWHSKVRQKSEVDIVVSEDLNGTVKFSSSLPYPNNLNSVLAERLEKWLQLMLMWHPRQRGTDPTYGPNGCFKALDDILNLKLVHILNMVTGTIHTYPVTEDESLQSLKARIQQDTGIPEEDQELLQEAGLALIPDKPATQCISDGKLNEGHTLDMDLVFLFDNSKITYETQISPRPQPESVSCILQEPKRNLAFFQLRKVWGQVWHSIQTLKEDCNRLQQGQRAAMMNLLRNNSCLSKMKNSMASMSQQLKAKLDFFKTSIQIDLEKYSEQTEFGITSDKLLLAWREMEQAVELCGRENEVKLLVERMMALQTDIVDLQRSPMGRKQGGTLDDLEEQARELYRRLREKPRDQRTEGDSQEMVRLLLQAIQSFEKKVRVIYTQLSKTVVCKQKALELLPKVEEVVSLMNEDEKTVVRLQEKRQKELWNLLKIACSKVRGPVSGSPDSMNASRLSQPGQLMSQPSTASNSLPEPAKKSEELVAEAHNLCTLLENAIQDTVREQDQSFTALDWSWLQTEEEEHSCLEQAS", "values": [{"measurement": "binding", "result": "no binding (condition: cells treated with TTM (50 µM))"}]}]}
